We go through two molecules from article PMC545799.

Sequences of proteins named here, by UniProt entry; tags and fusion partners are left off.
UniProt P23572: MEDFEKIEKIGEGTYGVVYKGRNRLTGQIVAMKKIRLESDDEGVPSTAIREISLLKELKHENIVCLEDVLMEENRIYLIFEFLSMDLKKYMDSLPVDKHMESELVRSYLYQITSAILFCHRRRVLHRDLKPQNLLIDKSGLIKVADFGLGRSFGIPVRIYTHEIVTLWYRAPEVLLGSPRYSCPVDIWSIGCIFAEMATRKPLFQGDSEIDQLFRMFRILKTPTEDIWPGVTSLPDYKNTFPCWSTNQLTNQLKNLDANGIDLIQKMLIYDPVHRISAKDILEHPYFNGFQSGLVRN

For the assay, the target named is Cdc2 (Drosophila melanogaster) (UniProt P23572). Nature of the assay: two-hybrid; LexA-based yeast two-hybrid: LexA BD fusions (pHZ5-NRT, strain Y309) mated with B42 AD fusions (pJZ4-NRT, strain RFY231); pooled mating in two phases and library screening; LEU2 (growth without leucine, 0-3) and lacZ (X-Gal, 0-5) reporters on galactose and maltose medium, 30°C; interactions re-tested one-on-one.

No constants are given. Whether binding was seen depends on the method and setting. Some entries that bind do so weakly or less than the wild type.

B1: twe (protein, UniProt Q03019 1-426)
chain: MASKRLMLDVEEEDDESGACGQENFDPHDADMEYQAKRRKSAVQETPLQWMLKRHIPASTTVLSPITELSQNMNGARLDGTPKSTQRIPANRTLNNFNSLSSRTLGSFSSSCSSYESGNSLDDEYMDMFEMESAENHNLELPDDLEVLLSGQLKSESNLEEMSNKKGSLRRCLSMYPSEQPEEAVQEPDQETNMPMKKMQRKTLSMNDAEIMRALGDEPELIGDLSKPCTLPCLATGIRHRDLKTISSDTLARLIQGEFDEQLGSQGGYEIIDCRYPYEFLGGHIRGAKNLYTRGQIQEAFPTLTSNQENRRIYVFHCEFSSERGPKLLRYLRSNDRSQHTHNYPALDYPELYILHNGYKEFFGLYSQLCQPSQYVPMLAPAHNDEFRYFRAKTKSWQCGEGGDSGIGGGGSRGLRKSRSRLLYAE
For the molecule B1, the binding entry was “binds”.

B2: CycE (protein, UniProt P54733 1-709)
chain: MGLNAKSVCSTSSTEPNGSIVTTAPSNGEVSSSIVVVVSSSSISSSSDSPIAILPHPDPIPSTSFSSASQRSEEELPGTSAASRTDEMCSCDSQNLAASTAATSNGNKRKRRLSSDSNEDPELGFEPPSAKRQQRLPALYGSEQGNLSSVASSVYTSPVVSVDGQSTQELLSIRSSPAEDLSEAPHSPLPDSPDSPPSPDRGSKQTPVVVRYAAEQVVTSTVVTQKTEDDDLLDDSCEDYSYDEDDEDDVEEEDDDVEIYSSTISPASSGCSQQQAVNGERTPGLPKHQEQIHHPVSDLMINMRTPMSPAVENGLRQCPLPALAWANAADVWRLMCHRDEQDSRLRSISMLEQHPGLQPRMRAILLDWLIEVCEVYKLHRETFYLAVDYLDRYLHVAHKVQKTHLQLIGITCLFVAAKVEEIYPPKIGEFAYVTDGACTERDILNHEKILLQALDWDISPITITGWLGVYMQLNVNNRTPASFSQIGRQKSAEADDAFIYPQFSGFEFVQTSQLLDLCTLDVGMANYSYSVLAAAAISHTFSREMALRCSGLDWQVIQPCARWMEPFFRVISQKAPYLQLNEQNEQVSNKFGLGLICPNIVTDDSHIIQTHTTTMDMYDEVLMAQDAAHAMRARIQASPATALRAPESLLTPPASSHKPDEYLGDEGDETGARSGISSTTTCCNTAASNKGGKSSSNNSVTSCSSRSNP
As to B2, the binding result is listed as “binds”.
